# Measured values: publication PMC3227642
# Target: T1, GST-Bms1p (yeast) (UniProt Q08965)
# T1 sequence: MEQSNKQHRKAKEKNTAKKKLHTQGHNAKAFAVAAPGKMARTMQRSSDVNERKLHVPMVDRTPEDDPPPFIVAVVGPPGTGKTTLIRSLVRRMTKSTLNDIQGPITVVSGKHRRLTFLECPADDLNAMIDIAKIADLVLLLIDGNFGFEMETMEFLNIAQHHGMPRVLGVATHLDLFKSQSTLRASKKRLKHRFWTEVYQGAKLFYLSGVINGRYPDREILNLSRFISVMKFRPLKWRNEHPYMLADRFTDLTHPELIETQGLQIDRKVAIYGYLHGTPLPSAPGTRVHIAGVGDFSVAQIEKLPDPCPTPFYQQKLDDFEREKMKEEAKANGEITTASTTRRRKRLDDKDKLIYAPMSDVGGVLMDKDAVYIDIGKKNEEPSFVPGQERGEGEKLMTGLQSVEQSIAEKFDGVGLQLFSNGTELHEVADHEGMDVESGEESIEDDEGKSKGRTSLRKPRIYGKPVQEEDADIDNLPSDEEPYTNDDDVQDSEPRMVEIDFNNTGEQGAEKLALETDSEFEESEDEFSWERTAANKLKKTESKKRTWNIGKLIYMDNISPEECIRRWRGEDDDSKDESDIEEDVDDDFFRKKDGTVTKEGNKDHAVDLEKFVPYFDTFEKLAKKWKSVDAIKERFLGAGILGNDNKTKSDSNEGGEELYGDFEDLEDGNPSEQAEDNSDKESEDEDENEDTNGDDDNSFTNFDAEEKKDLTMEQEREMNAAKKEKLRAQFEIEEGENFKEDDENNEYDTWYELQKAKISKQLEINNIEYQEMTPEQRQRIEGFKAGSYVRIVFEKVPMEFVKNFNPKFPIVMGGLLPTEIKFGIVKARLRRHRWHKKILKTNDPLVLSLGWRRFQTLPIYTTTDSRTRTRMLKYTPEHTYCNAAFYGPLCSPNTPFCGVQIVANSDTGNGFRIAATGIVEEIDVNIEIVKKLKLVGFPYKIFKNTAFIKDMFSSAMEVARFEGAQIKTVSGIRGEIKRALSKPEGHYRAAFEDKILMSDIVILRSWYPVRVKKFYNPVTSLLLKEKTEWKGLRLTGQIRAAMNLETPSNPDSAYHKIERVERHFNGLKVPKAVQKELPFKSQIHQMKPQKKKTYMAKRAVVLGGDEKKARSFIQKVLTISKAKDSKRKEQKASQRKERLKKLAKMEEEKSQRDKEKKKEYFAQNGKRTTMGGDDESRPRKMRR
# Assay: pull-down; glutathione-agarose pulldown from clarified extracts (4 mg protein) of yeast grown in galactose (GST-BMS1 expressed) or glucose (not expressed); 4°C; GST Buffer (25 mM Tris pH 8.0, 150 mM NaCl, 5 mM MgCl2, 1 mM EDTA, 2.5% glycerol); washes with 0.05% or 0.5% Triton X-100; immunoblot with anti-Hsp90 antisera
substance,measurement,value
Hsp90 (yeast (endogenous in BY4741)),binding,binds

# These are yes or no findings as the source states them, for the method shown. Binding seen in cells or lysates may run through a third protein. A result given as binding can be weak or reduced; the word gives no strength. Tags and fused reporters may be left off the sequences shown.
